This series has as its system RAW-Blue (mouse TLR9 reporter, RAW 264.7). Put plainly: mTLR9 reporter activity (SEAP, QUANTI-Blue absorbance) (OD650); higher = stronger mouse TLR9 activation. The note with it: 3 h. The procedure:
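Synthetic single-stranded 24-mer CpG ODNs were diluted in saline and added to mouse RAW-Blue cells (RAW 264.7 with an NF-kB/AP-1-inducible SEAP reporter; endogenous mouse TLR9), about 1e5 cells/well. After 3 h, SEAP in the supernatant was read with QUANTI-Blue as absorbance at 650 nm. ODN concentration and backbone chemistry are not stated; activity of 0.4 or above is the paper's high-activity class.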

Among the data in the supplement of paper PMC6924143 are mTLR9 reporter activity values, retold here.

The data scatter; read single values as rough.

Sequence TGTCGTGCTTGAGCGTCGCGCTTT [ODN266] came in with a mTLR9 reporter activity of 0.146.

In turn, TGTCGTGTGTCACGTTGTCGCGCT [ODN235] showed a mTLR9 reporter activity of 0.223.

Sequence TGTCTCGTCTTGCGACGTCGTCGT [ODN251] displayed a mTLR9 reporter activity of 0.153.

Sequence TGTCTGCGCGATGCGTTGTCGTTT [ODN157] had a mTLR9 reporter activity of 0.144.

With TGTCTGCGCGCGCGATGTCTGTTT [ODN120], the mTLR9 reporter activity amounted to 0.073.

Sequence TGTCTTTTGTGACGCGCGTTTTGT [ODN032] came in with a mTLR9 reporter activity of 0.309.

With TGTGAGCGCGTTTTACTTTTGCGT [ODN052], the mTLR9 reporter activity came to 0.178.

Sequence TGTGAGCGTAGCGCGCTTTTTTTT [ODN050] displayed a mTLR9 reporter activity of 0.238.

Consider TGTGAGCGTGCAGCTTTTGCTTTT [ODN020], for which the mTLR9 reporter activity stood at 0.359.

Consider TGTGAGTTTTGCTTTTCGCGCAGT [ODN059], for which the mTLR9 reporter activity was 0.147.

In turn, TGTGATGCGACGCGTGAGTTCTTT [ODN086] returned a mTLR9 reporter activity of 0.15.

TGTGCGCGTGCGTCGCTCTTGATT [ODN194] displayed a mTLR9 reporter activity of 0.102.

Turning to TGTGCGCGTGTCAGATTTGCGATT [ODN073], the mTLR9 reporter activity turned out to be 0.173.

The sequence TGTGCGCGTTCTTCGTCGCGAGTT [ODN161] yielded a mTLR9 reporter activity of 0.216.

For TGTGCGCTTGTTGCAGAGTCTTTT [ODN085], the mTLR9 reporter activity came out at 0.166.

As to TGTGCGTTCTCGCGTTGCGTGTGT [ODN242], the mTLR9 reporter activity is 0.208.

Consider TGTGCGTTGCGTCTAGACGAGCTT [ODN077], for which the mTLR9 reporter activity is 0.277.

TGTGCGTTTTGCTTTTTGCGCGCT [ODN010] returned a mTLR9 reporter activity of 0.409.

In turn, TGTGTCGTTTTGCTGCGCGATTTT [ODN013] came in with a mTLR9 reporter activity of 0.839.

The sequence TGTGTGCACGTCGTGCATCGATTT [ODN103] gave a mTLR9 reporter activity of 0.085.

Sequence TGTGTGCGCTCGCGCTTCTCACGT [ODN122] had a mTLR9 reporter activity of 0.176.

In turn, TGTGTTCGCGTGCGTGTTCGTTAT [ODN241] displayed a mTLR9 reporter activity of 0.146.

In turn, TGTTAGACGCTTAGTGCGCGTCTT [ODN069] showed a mTLR9 reporter activity of 0.187.

For TGTTAGCGTTTTGCGCTTCGCGTT [ODN183], the mTLR9 reporter activity was determined as 0.126.

For the sequence TGTTCTCGCGCGCGTGTTACTGCT [ODN150], the mTLR9 reporter activity amounted to 0.147.

TGTTCTTTTGCGCGCGCAGTCGTT [ODN237] registered a mTLR9 reporter activity of 0.136.

In the case of TGTTGCGCGCGACTTTTGAGTTTT [ODN025], the mTLR9 reporter activity is 0.32.

Regarding TGTTGCTGTCGCGTCGCTGCGAGT [ODN269], the mTLR9 reporter activity came to 0.102.

In turn, TGTTGTGTCGTCGCGTACGTTCTT [ODN265] came in with a mTLR9 reporter activity of 0.129.

The sequence TGTTTCGTAGCAGTGCGCGAACTT [ODN080] registered a mTLR9 reporter activity of 0.19.

Take TGTTTCTCGCGTCTGTGCGATCGT [ODN158]: the mTLR9 reporter activity turned out to be 0.229.

Take TGTTTTAGCGCGTGCGTTTTACGT [ODN056]: the mTLR9 reporter activity amounted to 0.164.

As for TGTTTTCTGCGTTTTGACGAGCGT [ODN016], the mTLR9 reporter activity came to 0.595.

Consider TGTTTTGAGTCGCGCGTACGTTTT [ODN057], for which the mTLR9 reporter activity was 0.246.

TGTTTTGCGCGCAGAGTCTGTTTT [ODN034] had a mTLR9 reporter activity of 0.316.

Take TGTTTTGCGCTTTTGTGCGCGCGT [ODN039]: the mTLR9 reporter activity was 0.305.

Sequence TGTTTTGTAGCGCGCTGCTTTTGT [ODN044] yielded a mTLR9 reporter activity of 0.28.

Regarding TGTTTTGTGTCGCGCTAGCGTTTT [ODN054], the mTLR9 reporter activity amounted to 0.235.

TTATTGCGTCGTGCGCGTTTTCGT [ODN215] registered a mTLR9 reporter activity of 0.237.

Regarding TTCGCAGCGCGTGTCTTCGTTCGT [ODN261], the mTLR9 reporter activity amounted to 0.111.

TTCGCGAGCTTCGTGCGCGCTCGT [ODN231]: the mTLR9 reporter activity turned out to be 0.209.

Turning to TTCGCGCGCGCGTCTGTGTTGCGT [ODN138], the mTLR9 reporter activity amounted to 0.15.

With TTCGCGCGTTCGTCTCTGTCGTGT [ODN236], the mTLR9 reporter activity is 0.321.

The sequence TTCGCGTGCAGTAGACTTGACGTT [ODN071] gave a mTLR9 reporter activity of 0.47.

For TTCGCGTTTGCGTTTCGCGTGTCT [ODN243], the mTLR9 reporter activity is 0.23.

As for TTCGCTGATCTGTGTGCGTGTGTT [ODN078], the mTLR9 reporter activity is 0.168.

TTCGCTGCGTCGCGTGTGCATCTT [ODN245] displayed a mTLR9 reporter activity of 0.183.

In turn, TTCGTCGAGTCGCGCGTTCGCTGT [ODN239] gave a mTLR9 reporter activity of 0.226.

Turning to TTCGTGCGTGCGTCGCATTTCGCT [ODN199], the mTLR9 reporter activity came to 0.181.

Turning to TTCGTGTTTTGCGTGCGTTTTCGT [ODN035], the mTLR9 reporter activity came to 0.

Sequence TTCGTTCACGTGCGCGCGTTGTTT [ODN238] gave a mTLR9 reporter activity of 0.187.

For TTCGTTTGTGCGCATCGTGAGTTT [ODN092], the mTLR9 reporter activity stood at 0.205.

The sequence TTCTGATGCGCGTCGTGCGTTGCT [ODN271] displayed a mTLR9 reporter activity of 0.135.

TTGACGAGTCTTCAGCGTAGTGTT [ODN067] returned a mTLR9 reporter activity of 0.189.

The sequence TTGAGCGCTTTGTCTCGCGTGCGT [ODN123] showed a mTLR9 reporter activity of 0.216.

Turning to TTGCGACGCTGCGTCTTTTGCGCT [ODN232], the mTLR9 reporter activity is 0.199.

In the case of TTGCGCGCGTCGCTCTGCGCTGTT [ODN212], the mTLR9 reporter activity turned out to be 0.125.

In the case of TTGCGCGTCGTTGCGCTTCTGTCT [ODN233], the mTLR9 reporter activity came out at 0.186.

TTGCGCTCACATGTGCAGCGTGTT [ODN084] registered a mTLR9 reporter activity of 0.146.

TTGCGCTTGTCGCGCGTCTTTAGT [ODN250] displayed a mTLR9 reporter activity of 0.2.

TTGCGTCGTATCGCGTGTCTCTGT [ODN162] came in with a mTLR9 reporter activity of 0.136.

TTGCGTTGCAGCGTCGCTCGCTGT [ODN267] yielded a mTLR9 reporter activity of 0.176.

TTGCGTTTTCGCGCAGAGTTTTGT [ODN008] yielded a mTLR9 reporter activity of 0.

The sequence TTGCTACGTCGTGCGTCGTGTGCT [ODN131] showed a mTLR9 reporter activity of 0.404.

For the sequence TTGCTGCTGCTAGAGTGCGAGCTT [ODN079], the mTLR9 reporter activity stood at 0.139.

The sequence TTGCTTCGCGCTGAGCGTCGTTGT [ODN226] returned a mTLR9 reporter activity of 0.185.

TTGCTTCGCTAGCGTCGCGCGTGT [ODN230] yielded a mTLR9 reporter activity of 0.163.

For the sequence TTGTCGCGTGACTTGCGTCGTCGT [ODN216], the mTLR9 reporter activity came to 0.201.

In turn, TTGTCGTAGCTGCGCGTATGATTT [ODN062] came in with a mTLR9 reporter activity of 0.276.

TTGTTTCGTGTTTTCGACGCGCGT [ODN240]: the mTLR9 reporter activity worked out at 0.166.

Sequence TTTCGCGAGCACTGCAAGCGCGTT [ODN109] returned a mTLR9 reporter activity of 0.1.

TTTCGTTTCGCGCTGTGACGCGTT [ODN268] showed a mTLR9 reporter activity of 0.153.

With TTTGCGTCGTGCGTGTGTGATCGT [ODN248], the mTLR9 reporter activity was determined as 0.179.

TTTGCTCGACGTTCGCGTGTTCGT [ODN124] had a mTLR9 reporter activity of 0.416.

On to TTTGTGTGCGCGCGCGTGTTTTTT [ODN224], for which the mTLR9 reporter activity amounted to 0.187.

TTTGTTCGTTTTAGTTGCGCGCGT [ODN259] registered a mTLR9 reporter activity of 0.154.

Consider TTTTAGCAGCGTTTTGCTGCGTGT [ODN029], for which the mTLR9 reporter activity came out at 0.369.

In turn, TTTTAGCGCGCGTTGCTGTTTTGT [ODN049] gave a mTLR9 reporter activity of 0.27.

As for TTTTAGCGTTTTGAGCTCGTGCGT [ODN002], the mTLR9 reporter activity is 0.939.

Sequence TTTTCGAGCGTTTTGCAGCGCGCT [ODN004] yielded a mTLR9 reporter activity of 0.943.

As for TTTTCGAGTTGCGCGCGATTTTGT [ODN040], the mTLR9 reporter activity was found to be 0.289.

For TTTTCGCGCTTTTGTAGTGTGCGT [ODN005], the mTLR9 reporter activity was determined as 0.788.

As for TTTTCGTGCGCAAGTTTTGCGTGT [ODN027], the mTLR9 reporter activity was found to be 0.404.

Consider TTTTCTTTTGTCGCGCGTGAGAGT [ODN006], for which the mTLR9 reporter activity is 0.358.

In the case of TTTTGAGCGCGCGCGCAGCTTTTT [ODN022], the mTLR9 reporter activity turned out to be 0.357.

In turn, TTTTGCGAGCGCAGTTTTCGCTGT [ODN028] yielded a mTLR9 reporter activity of 0.335.

In the case of TTTTGCGCGACGTGCTTTTGTTGT [ODN007], the mTLR9 reporter activity came to 0.178.

Take TTTTGCGCGAGTTTTGCTTCGCGT [ODN053]: the mTLR9 reporter activity worked out at 0.186.

For TTTTGCGCGTGAGCGTGCGTTTTT [ODN009], the mTLR9 reporter activity is 0.362.

TTTTGCGCGTTTGCGATTTTGCGT [ODN047] gave a mTLR9 reporter activity of 0.224.

For the sequence TTTTGCGTGCGACGTCGCGCTTTT [ODN023], the mTLR9 reporter activity amounted to 0.377.

The sequence TTTTGCTTTTCGCGCGAGCAGCGT [ODN015] showed a mTLR9 reporter activity of 0.315.

With TTTTGTCGAGCGCGCAGTGTTTTT [ODN036], the mTLR9 reporter activity came to 0.38.

The sequence TTTTGTTTTGCAGTGCGTCGCGAT [ODN017] returned a mTLR9 reporter activity of 0.34.

The sequence TTTTTCGTGCAGCGCGTGTTTTGT [ODN030] showed a mTLR9 reporter activity of 0.42.

As to TTTTTGCGACGCGCGTGCGTTTTT [ODN021], the mTLR9 reporter activity was 0.33.

Consider TTTTTGCGTGCGCGCTGTCGTTGT [ODN114], for which the mTLR9 reporter activity worked out at 0.099.
